Source: PMC9478406
These are yes or no findings as the source states them, for the method shown. In cells and extracts the contact can be indirect. Some results given as binding are weak or reduced against the parent protein; the word gives no strength. Sequences can lack the tags named with a protein.

The chains behind the UniProt entries cited, without tags or fusion partners. Where a name states a change or a piece, a line headed by the entry shows the natural chain unless it says otherwise. A line that says so, or that is headed by a name, gives the form on record, which may keep a tag or linker.
FLAG-tagged hnRNP A1 fragment 2 + 3 (87–320 aa) (P09651-2, form named): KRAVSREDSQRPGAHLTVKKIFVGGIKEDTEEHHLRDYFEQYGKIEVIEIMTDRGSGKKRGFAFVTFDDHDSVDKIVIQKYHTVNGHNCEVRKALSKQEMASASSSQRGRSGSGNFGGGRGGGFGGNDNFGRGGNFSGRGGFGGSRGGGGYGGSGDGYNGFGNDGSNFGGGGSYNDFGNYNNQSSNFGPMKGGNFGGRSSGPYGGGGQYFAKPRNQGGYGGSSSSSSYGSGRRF
FLAG-tagged hnRNP A1 fragment 3 (212–320 aa) (P09651-2, form named): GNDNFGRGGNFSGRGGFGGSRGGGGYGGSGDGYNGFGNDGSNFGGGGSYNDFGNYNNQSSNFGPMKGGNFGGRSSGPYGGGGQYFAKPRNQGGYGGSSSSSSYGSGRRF

Target: T1, GST-tagged ARK5 wild type (AMPK-related protein kinase 5) (human) (UniProt O60285)
T1 sequence: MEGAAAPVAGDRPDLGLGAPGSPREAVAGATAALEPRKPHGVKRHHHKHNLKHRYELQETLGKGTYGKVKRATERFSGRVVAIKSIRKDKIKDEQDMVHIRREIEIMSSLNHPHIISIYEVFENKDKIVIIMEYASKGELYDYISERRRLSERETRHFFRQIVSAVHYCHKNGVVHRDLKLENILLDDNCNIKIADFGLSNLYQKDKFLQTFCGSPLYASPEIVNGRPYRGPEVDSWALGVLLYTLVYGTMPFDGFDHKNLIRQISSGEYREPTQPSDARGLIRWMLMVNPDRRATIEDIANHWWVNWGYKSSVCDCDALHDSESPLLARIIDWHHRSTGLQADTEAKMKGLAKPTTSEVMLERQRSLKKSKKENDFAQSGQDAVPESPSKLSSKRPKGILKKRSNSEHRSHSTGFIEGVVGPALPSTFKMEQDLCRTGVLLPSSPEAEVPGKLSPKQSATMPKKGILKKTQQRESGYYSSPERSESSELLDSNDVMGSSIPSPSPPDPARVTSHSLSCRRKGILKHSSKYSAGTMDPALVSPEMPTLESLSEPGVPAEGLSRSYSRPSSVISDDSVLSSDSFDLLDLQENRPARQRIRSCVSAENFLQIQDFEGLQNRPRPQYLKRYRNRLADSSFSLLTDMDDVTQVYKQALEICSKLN
Assay: co-IP; in vivo co-IP: U2OS cells cotransfected with GST-ARK5 (WT or KD) and FLAG-hnRNP A1 (WT, fragments or mutants); lysate in co-IP buffer (25 mM Tris-HCl pH 7.4, 150 mM NaCl, 0.5% Triton X-100), GSH Sepharose beads overnight at 4 °C, immunoblotting

Row | Substance | binding
1 | FLAG-tagged hnRNP A1 fragment 2 + 3 (87–320 aa) (from UniProt P09651-2 87-320) (domain or fragment) | binds
2 | FLAG-tagged hnRNP A1 fragment 3 (212–320 aa) (from UniProt P09651-2 212-320) (domain or fragment) | binds
